Measured values taken from PubChem BioAssay AID445 (National Center for Advancing Translational Sciences (NCATS), 2006).
Some of the results follow. Shown are side measurements of this screen, not its main read-out; they come without a call. The list favours compounds with an active or inconclusive main result. The note in brackets gives the kind of curve behind each potency; many fits are weak.

Experiment: IkB Signaling
Conditions: ABC-DLBCL IkBa-CBG/CBR dual luciferase ratio (green luciferase fused to IkBa over red control in OCI-Ly3 lymphoma cells), 4 h
In short: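 Luminescence ratio of IκBα-fused green versus native red beetle luciferase in OCI-Ly3 cells, 4 h post-doxycycline with compound; red signal alone, scaled from basal (0%) to zero light (-100%), flagged nonspecific or cytotoxic effects.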

[1] = measured here: control luc red channel unless noted

## Cc1cccc2cc(CN(Cc3ccco3)C(=O)NC3CCCCC3)c(=O)[nH]c12
[1]
  AC50: 31.6 µM [falling, single point]

## CCN(CC)c1ccc(NC(=O)c2cc(CN3CCCC3)on2)c(C)c1
[1]
  AC50: 39.8 µM [falling, partial curve]

## CCOc1cc(CNC(=O)c2ccc(NC(=O)c3nsc4ccccc34)cc2)ccc1OC
[1]
  AC50: 0.1 µM [falling, full curve]

## Cn1c(=O)c2ccccc2n2c(CCC(=O)N3CCN(c4cccc(Cl)c4)CC3)nnc12
[1]
  AC50: 25.1 µM [falling, single point]

## CCOc1ccc(NC(=O)CC2C(=O)N(c3cccc(OC)c3)C(=O)N2C2CCCCC2)cc1 (stereo not drawn)
[1]
  AC50: 25.1 µM [falling, partial curve]

## COC(=O)c1c(-c2cccs2)csc1NC(=O)c1cc(OC)cc(OC)c1
[1]
  AC50: 12.6 µM [falling, partial curve]

## Clc1cccc(-n2ncc3c(NCCCc4ccccc4)ncnc32)c1
[1]
  AC50: 20 µM [falling, partial curve]

## Cc1ccc(C(=O)Nc2nc3ccccc3c(=O)s2)cc1
Measured here: IkB-luc green channel
  AC50: 2.51 µM [rising, full curve]
Measured here: control luc red channel
  AC50: 1.26 µM [falling, full curve]

## Cc1cc(S(=O)(=O)Nc2cccc(-c3ccc(N4CCOCC4)nn3)c2)c(C)cc1Cl
[1]
  AC50: 39.8 µM [falling, partial curve]

## Cc1ccc(CCNC(=O)c2sc3ncccc3c2-n2cccc2)cc1
[1]
  AC50: 20 µM [falling, partial curve]

## COc1cccc(NC(=O)CSc2nc(O)c(C/C=C/c3ccccc3)c(=O)[nH]2)c1
[1]
  AC50: 15.8 µM [falling, partial curve]

## c1ccc(-c2ccc(N3CC[C@@]4(CCCNC4)C3)cc2)cc1
[1]
  AC50: 3.98 µM [falling, partial curve]

## CCc1cccc(C)c1Nc1c(-c2ccc(N(C)C)cc2)nc2ncccn12
[1]
  AC50: 31.6 µM [falling, single point]

## CC1CCC(NC(=O)C2(C)Cc3ccccc3C(=O)N2Cc2ccccc2Cl)CC1 (stereo not drawn)
[1]
  AC50: 39.8 µM [falling, single point]

## COc1ccc2c(c1)-c1nc(NC(=O)c3cc(OC)c(OC)c(OC)c3)sc1CC2
[1]
  AC50: 0.398 µM [falling, full curve]

## O=c1[nH]c(C2CCCN(S(=O)(=O)c3ccccc3)C2)nc2c1nnn2Cc1ccc(OC(F)(F)F)cc1 (stereo not drawn)
[1]
  AC50: 0.316 µM [falling, full curve]

## O=C(C1CCC(Cn2c(=O)c3sccc3n(Cc3ccc(F)cc3)c2=O)CC1)N1CCOCC1 (stereo not drawn)
[1]
  AC50: 7.94 µM [rising, single point]
